Measurements: patent publication US20060183702A1
These are yes or no findings as the source states them, for the method shown. Some binding calls cover weakened binding; strength is not graded here. Tags and fused reporters may be left off the sequences shown.

Protein sequences, listed by entry. Tags and fused reporters are not part of them. Residues count along the entry.
UniProt P07359, residues 17-652: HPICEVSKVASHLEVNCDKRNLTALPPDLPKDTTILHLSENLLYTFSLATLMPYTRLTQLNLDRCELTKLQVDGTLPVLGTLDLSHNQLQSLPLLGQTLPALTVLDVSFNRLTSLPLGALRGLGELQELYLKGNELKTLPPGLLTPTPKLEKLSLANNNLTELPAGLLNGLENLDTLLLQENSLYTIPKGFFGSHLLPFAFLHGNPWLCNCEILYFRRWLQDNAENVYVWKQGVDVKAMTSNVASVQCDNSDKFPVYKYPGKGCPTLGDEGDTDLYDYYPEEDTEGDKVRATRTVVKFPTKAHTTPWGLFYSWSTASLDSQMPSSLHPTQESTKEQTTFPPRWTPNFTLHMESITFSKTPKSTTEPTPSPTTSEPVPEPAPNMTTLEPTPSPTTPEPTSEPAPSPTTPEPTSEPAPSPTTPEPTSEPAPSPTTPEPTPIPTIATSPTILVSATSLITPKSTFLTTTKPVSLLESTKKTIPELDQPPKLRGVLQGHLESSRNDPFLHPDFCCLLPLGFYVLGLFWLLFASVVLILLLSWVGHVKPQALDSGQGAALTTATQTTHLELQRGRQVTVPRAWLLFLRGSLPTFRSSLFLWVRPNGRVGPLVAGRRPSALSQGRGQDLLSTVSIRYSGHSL

Target: gpIb receptor on lyophilized human platelets (human) (UniProt P07359)
Assay: flow cytometry on lyophilized human platelets with botrocetin; anti-poly-His antibody and PE secondary antibody

binding: binds
B1: 6-Histidine-tagged rabbit von Willebrand Factor A1 domain (ligand)
chain: MGHHHHHHEPPLHDFYWSNLMDLVFLLDGSAQLSEAEFGVLKAFVVSVMERLHISQKRIRVAVVEYHDGSHSYISLKDRKRPSELRRIASQVKYAGGPVASTSEVLKYTLFHIFSNVDRPEASRIALLLSASQETPRMVRNLVRYAQGLKKEKVIVIPVGIGPHVSLRQIHLIEKQAPENKAFVLSGVDELEQRRDEIISYLCDLGPEAPVPT
